Results reported in PubChem BioAssay AID186 (DTP/NCI, 2004).
Values are animals surviving of animals treated; these mice carried no tumour. Survivors were counted at the toxicity check, usually on the fifth day, unless a day is given; later deaths do not show. Schedules are NCI's codes, read here as Q, the interval in days (D) or hours (H), X, the number of doses. Counts like (3×) stand for listed records that agree. Some doses were run more than once; their values stand side by side, smallest first.

Tested on: B6D2F1 mice, nontumored toxicity test, survival
Assay: NCI In Vivo Anticancer Drug Screen. Data for tumor model Nontumored Animals (Toxicity Test) in B6D2F1 (BDF1) mice

Structure (SMILES): COc1ccc2[nH]c3c(C)c4ccncc4c(C)c3c2c1
- survivor count (dose: 1.0 mg/kg/injection, schedule: Q03HX016 (ip), vehicle: water): 8 of 8
- survivor count (dose: 1.0 mg/kg/injection, schedule: Q03HX024 (ip), vehicle: water): 8 of 8
- survivor count (dose: 2.0 mg/kg/injection, schedule: Q03HX008 (ip), vehicle: water): 8 of 8
- survivor count (dose: 2.0 mg/kg/injection, schedule: Q03HX008 (sc), vehicle: water): 8 of 8
- survivor count (dose: 2.0 mg/kg/injection, schedule: Q03HX016 (ip), vehicle: water): 8 of 8
- survivor count (dose: 2.0 mg/kg/injection, schedule: Q03HX024 (ip), vehicle: water): 8 of 8
- survivor count (dose: 4.0 mg/kg/injection, schedule: Q01DX009 (ip), vehicle: water): 8 of 8 (2×)
- survivor count (dose: 4.0 mg/kg/injection, schedule: Q01DX009 (sc), vehicle: water): 8 of 8
- survivor count (dose: 4.0 mg/kg/injection, schedule: Q03HX008 (ip), vehicle: water): 8 of 8
- survivor count (dose: 4.0 mg/kg/injection, schedule: Q03HX008 (sc), vehicle: water): 8 of 8
- survivor count (dose: 4.0 mg/kg/injection, schedule: Q03HX016 (ip), vehicle: water): 8 of 8
- survivor count (dose: 4.0 mg/kg/injection, schedule: Q03HX024 (ip), vehicle: water): 8 of 8
- survivor count (dose: 8.0 mg/kg/injection, schedule: Q01DX009 (ip), vehicle: water): 7 of 8 and 8 of 8
- survivor count (dose: 8.0 mg/kg/injection, schedule: Q01DX009 (sc), vehicle: water): 7 of 7
- survivor count (dose: 8.0 mg/kg/injection, schedule: Q03HX008 (ip), vehicle: water): 8 of 8
- survivor count (dose: 8.0 mg/kg/injection, schedule: Q03HX008 (sc), vehicle: water): 8 of 8
- survivor count (dose: 8.0 mg/kg/injection, schedule: Q03HX016 (ip), vehicle: water): 7 of 8
- survivor count (dose: 8.0 mg/kg/injection, schedule: Q03HX024 (ip), vehicle: water): 7 of 8
- survivor count (dose: 8.0 mg/kg/injection, schedule: Q04DX003 (ip), vehicle: other): 8 of 8
- survivor count (dose: 8.0 mg/kg/injection, schedule: Q08DX002 (ip), vehicle: other): 8 of 8
- survivor count (dose: 16.0 mg/kg/injection, schedule: Q01DX001 (ip), vehicle: water): 7 of 8
- survivor count (dose: 16.0 mg/kg/injection, schedule: Q01DX001 (sc), vehicle: other): 8 of 8
- survivor count (dose: 16.0 mg/kg/injection, schedule: Q01DX009 (ip), vehicle: water): 8 of 8 (2×)
- survivor count (dose: 16.0 mg/kg/injection, schedule: Q01DX009 (sc), vehicle: water): 8 of 8
- survivor count (dose: 16.0 mg/kg/injection, schedule: Q03HX008 (ip), vehicle: water): 8 of 8
- survivor count (dose: 16.0 mg/kg/injection, schedule: Q03HX008 (sc), vehicle: water): 8 of 8
- survivor count (dose: 16.0 mg/kg/injection, schedule: Q03HX016 (ip), vehicle: water): 6 of 8
- survivor count (dose: 16.0 mg/kg/injection, schedule: Q03HX024 (ip), vehicle: water): 8 of 8
- survivor count (dose: 16.0 mg/kg/injection, schedule: Q04DX003 (ip), vehicle: other): 8 of 8
- survivor count (dose: 16.0 mg/kg/injection, schedule: Q08DX002 (ip), vehicle: other): 7 of 8
- survivor count (dose: 32.0 mg/kg/injection, schedule: Q01DX001 (ip), vehicle: water): 8 of 8
- survivor count (dose: 32.0 mg/kg/injection, schedule: Q01DX001 (sc), vehicle: other): 8 of 8
- survivor count (dose: 32.0 mg/kg/injection, schedule: Q01DX009 (ip), vehicle: water): 6 of 8 and 8 of 8
- survivor count (dose: 32.0 mg/kg/injection, schedule: Q01DX009 (sc), vehicle: water): 7 of 8
- survivor count (dose: 32.0 mg/kg/injection, schedule: Q03HX008 (ip), vehicle: water): 3 of 8
- survivor count (dose: 32.0 mg/kg/injection, schedule: Q03HX008 (sc), vehicle: water): 8 of 8
- survivor count (dose: 32.0 mg/kg/injection, schedule: Q03HX016 (ip), vehicle: water): 2 of 8
- survivor count (dose: 32.0 mg/kg/injection, schedule: Q03HX024 (ip), vehicle: water): 2 of 8
- survivor count (dose: 32.0 mg/kg/injection, schedule: Q04DX003 (ip), vehicle: other): 8 of 8
- survivor count (dose: 32.0 mg/kg/injection, schedule: Q08DX002 (ip), vehicle: other): 8 of 8
- survivor count (dose: 64.0 mg/kg/injection, schedule: Q01DX001 (ip), vehicle: water): 8 of 8
- survivor count (dose: 64.0 mg/kg/injection, schedule: Q01DX001 (sc), vehicle: other): 8 of 8
- survivor count (dose: 64.0 mg/kg/injection, schedule: Q01DX009 (ip), vehicle: water): 0 of 8 and 2 of 8
- survivor count (dose: 64.0 mg/kg/injection, schedule: Q01DX009 (sc), vehicle: water): 8 of 8
- survivor count (dose: 64.0 mg/kg/injection, schedule: Q03HX008 (ip), vehicle: water): 0 of 8
- survivor count (dose: 64.0 mg/kg/injection, schedule: Q03HX008 (sc), vehicle: water): 8 of 8
- survivor count (dose: 64.0 mg/kg/injection, schedule: Q04DX003 (ip), vehicle: other): 8 of 8
- survivor count (dose: 64.0 mg/kg/injection, schedule: Q08DX002 (ip), vehicle: other): 7 of 8
- survivor count (dose: 128.0 mg/kg/injection, schedule: Q01DX001 (ip), vehicle: water): 3 of 8
- survivor count (dose: 128.0 mg/kg/injection, schedule: Q01DX001 (sc), vehicle: other): 8 of 8
- survivor count (dose: 128.0 mg/kg/injection, schedule: Q01DX009 (ip), vehicle: water): 1 of 8
- survivor count (dose: 128.0 mg/kg/injection, schedule: Q04DX003 (ip), vehicle: other): 4 of 8
- survivor count (dose: 128.0 mg/kg/injection, schedule: Q08DX002 (ip), vehicle: other): 3 of 8
- survivor count (dose: 256.0 mg/kg/injection, schedule: Q01DX001 (ip), vehicle: water): 2 of 8
- survivor count (dose: 256.0 mg/kg/injection, schedule: Q01DX001 (sc), vehicle: other): 8 of 8
- survivor count (dose: 256.0 mg/kg/injection, schedule: Q04DX003 (ip), vehicle: other): 3 of 8
- survivor count (dose: 256.0 mg/kg/injection, schedule: Q08DX002 (ip), vehicle: other): 1 of 8
